Assay results: paper PMC7070008
These are yes or no findings as the source states them, for the method shown. Binding seen in cells or lysates may run through a third protein. Some binding calls cover weakened binding; strength is not graded here. For part of these data: Tags and fused reporters may be left off the sequences shown. Blank lines part the entries; values can stand above or below the molecule they belong to.

By UniProt entry, the sequences of proteins in these tests, tags left out. Where a name states a change or a piece, a line headed by the entry shows the natural chain unless it says otherwise.
UniProt P11531: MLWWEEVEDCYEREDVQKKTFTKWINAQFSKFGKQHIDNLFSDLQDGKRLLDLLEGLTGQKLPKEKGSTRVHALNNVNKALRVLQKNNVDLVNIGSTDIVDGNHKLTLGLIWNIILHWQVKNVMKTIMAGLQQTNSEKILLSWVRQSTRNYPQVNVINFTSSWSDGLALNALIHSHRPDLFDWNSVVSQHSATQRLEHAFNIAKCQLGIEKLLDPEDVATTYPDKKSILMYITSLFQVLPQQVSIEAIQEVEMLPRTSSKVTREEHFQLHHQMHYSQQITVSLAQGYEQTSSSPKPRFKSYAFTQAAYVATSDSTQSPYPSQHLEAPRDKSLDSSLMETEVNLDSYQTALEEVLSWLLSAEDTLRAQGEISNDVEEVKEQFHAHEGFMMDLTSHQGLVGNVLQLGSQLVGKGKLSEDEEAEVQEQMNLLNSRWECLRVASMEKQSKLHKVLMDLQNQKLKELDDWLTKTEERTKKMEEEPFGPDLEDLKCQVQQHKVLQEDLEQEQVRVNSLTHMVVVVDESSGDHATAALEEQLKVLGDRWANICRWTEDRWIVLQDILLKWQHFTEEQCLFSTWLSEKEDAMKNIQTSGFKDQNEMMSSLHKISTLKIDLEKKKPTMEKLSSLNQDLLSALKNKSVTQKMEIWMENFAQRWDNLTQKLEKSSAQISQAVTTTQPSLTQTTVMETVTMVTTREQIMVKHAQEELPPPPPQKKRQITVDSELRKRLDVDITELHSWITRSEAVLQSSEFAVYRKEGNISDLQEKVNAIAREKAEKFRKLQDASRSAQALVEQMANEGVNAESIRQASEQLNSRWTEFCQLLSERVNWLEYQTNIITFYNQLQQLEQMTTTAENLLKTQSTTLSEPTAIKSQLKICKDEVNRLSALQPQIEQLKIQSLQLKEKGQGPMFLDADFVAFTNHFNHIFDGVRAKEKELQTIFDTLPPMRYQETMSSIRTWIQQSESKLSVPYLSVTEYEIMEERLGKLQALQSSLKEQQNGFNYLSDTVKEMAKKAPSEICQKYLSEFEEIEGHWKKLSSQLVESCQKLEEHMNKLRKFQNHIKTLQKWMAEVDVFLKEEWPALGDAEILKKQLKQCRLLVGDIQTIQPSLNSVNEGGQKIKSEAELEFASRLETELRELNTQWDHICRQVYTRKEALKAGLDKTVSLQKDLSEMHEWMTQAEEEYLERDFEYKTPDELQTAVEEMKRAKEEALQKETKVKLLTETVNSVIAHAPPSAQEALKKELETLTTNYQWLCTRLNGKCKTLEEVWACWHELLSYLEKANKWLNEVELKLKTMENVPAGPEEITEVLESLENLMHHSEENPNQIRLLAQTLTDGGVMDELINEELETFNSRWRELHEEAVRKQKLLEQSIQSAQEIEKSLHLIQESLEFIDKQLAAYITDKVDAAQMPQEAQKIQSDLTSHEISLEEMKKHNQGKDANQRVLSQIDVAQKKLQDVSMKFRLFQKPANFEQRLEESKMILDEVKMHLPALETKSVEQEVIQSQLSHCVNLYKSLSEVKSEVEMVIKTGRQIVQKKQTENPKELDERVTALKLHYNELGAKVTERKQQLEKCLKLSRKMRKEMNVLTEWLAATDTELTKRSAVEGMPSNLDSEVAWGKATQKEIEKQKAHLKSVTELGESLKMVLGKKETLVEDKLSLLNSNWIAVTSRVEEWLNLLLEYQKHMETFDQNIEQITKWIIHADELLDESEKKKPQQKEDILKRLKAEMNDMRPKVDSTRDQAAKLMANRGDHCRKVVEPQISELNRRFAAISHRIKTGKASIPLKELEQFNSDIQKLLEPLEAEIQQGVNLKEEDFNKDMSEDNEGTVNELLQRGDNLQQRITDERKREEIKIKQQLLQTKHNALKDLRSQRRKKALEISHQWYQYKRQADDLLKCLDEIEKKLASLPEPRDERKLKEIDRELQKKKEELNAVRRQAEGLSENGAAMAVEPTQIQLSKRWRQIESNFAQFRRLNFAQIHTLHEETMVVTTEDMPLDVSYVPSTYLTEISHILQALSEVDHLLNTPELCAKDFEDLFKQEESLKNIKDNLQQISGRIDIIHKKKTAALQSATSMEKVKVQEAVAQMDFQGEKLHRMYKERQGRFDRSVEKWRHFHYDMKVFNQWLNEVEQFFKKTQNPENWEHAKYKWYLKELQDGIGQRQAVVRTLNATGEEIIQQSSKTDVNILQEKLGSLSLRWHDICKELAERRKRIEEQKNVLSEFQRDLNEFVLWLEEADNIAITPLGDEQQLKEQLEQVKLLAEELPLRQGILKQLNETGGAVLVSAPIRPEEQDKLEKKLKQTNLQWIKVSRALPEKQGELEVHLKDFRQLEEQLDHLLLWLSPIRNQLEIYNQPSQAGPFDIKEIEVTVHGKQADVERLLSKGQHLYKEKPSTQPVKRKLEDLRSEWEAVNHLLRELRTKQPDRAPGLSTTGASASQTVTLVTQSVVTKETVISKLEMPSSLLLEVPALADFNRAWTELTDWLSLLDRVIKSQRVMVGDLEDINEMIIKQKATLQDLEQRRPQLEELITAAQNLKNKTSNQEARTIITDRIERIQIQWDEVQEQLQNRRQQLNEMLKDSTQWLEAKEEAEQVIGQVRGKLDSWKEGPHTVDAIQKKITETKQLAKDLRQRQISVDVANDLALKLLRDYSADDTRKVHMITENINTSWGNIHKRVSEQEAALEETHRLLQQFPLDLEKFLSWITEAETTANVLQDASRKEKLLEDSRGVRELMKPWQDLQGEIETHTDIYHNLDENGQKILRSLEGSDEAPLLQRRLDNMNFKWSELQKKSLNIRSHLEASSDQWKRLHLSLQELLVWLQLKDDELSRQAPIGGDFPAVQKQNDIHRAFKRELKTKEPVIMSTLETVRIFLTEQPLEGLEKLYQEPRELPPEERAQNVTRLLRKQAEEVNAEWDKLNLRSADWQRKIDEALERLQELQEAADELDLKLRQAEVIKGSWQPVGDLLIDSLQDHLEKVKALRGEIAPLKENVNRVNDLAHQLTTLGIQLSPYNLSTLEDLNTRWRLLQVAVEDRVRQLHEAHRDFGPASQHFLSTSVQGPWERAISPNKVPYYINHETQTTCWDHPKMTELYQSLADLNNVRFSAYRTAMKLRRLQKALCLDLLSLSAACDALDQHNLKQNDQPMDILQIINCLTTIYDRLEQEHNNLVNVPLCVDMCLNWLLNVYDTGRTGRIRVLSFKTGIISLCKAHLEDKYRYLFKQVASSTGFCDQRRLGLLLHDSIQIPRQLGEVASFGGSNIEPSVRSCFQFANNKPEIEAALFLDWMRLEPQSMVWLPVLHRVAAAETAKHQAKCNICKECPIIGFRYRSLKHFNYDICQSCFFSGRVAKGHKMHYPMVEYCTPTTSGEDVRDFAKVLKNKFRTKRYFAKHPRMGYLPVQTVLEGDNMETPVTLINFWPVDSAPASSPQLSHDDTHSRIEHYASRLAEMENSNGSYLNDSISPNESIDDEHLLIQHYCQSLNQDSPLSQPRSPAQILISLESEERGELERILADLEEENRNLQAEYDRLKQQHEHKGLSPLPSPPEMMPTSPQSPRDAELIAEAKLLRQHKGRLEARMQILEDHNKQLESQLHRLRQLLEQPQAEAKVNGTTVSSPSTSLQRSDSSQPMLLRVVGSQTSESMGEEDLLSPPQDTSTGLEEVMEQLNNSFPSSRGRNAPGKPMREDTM
UniProt P15208: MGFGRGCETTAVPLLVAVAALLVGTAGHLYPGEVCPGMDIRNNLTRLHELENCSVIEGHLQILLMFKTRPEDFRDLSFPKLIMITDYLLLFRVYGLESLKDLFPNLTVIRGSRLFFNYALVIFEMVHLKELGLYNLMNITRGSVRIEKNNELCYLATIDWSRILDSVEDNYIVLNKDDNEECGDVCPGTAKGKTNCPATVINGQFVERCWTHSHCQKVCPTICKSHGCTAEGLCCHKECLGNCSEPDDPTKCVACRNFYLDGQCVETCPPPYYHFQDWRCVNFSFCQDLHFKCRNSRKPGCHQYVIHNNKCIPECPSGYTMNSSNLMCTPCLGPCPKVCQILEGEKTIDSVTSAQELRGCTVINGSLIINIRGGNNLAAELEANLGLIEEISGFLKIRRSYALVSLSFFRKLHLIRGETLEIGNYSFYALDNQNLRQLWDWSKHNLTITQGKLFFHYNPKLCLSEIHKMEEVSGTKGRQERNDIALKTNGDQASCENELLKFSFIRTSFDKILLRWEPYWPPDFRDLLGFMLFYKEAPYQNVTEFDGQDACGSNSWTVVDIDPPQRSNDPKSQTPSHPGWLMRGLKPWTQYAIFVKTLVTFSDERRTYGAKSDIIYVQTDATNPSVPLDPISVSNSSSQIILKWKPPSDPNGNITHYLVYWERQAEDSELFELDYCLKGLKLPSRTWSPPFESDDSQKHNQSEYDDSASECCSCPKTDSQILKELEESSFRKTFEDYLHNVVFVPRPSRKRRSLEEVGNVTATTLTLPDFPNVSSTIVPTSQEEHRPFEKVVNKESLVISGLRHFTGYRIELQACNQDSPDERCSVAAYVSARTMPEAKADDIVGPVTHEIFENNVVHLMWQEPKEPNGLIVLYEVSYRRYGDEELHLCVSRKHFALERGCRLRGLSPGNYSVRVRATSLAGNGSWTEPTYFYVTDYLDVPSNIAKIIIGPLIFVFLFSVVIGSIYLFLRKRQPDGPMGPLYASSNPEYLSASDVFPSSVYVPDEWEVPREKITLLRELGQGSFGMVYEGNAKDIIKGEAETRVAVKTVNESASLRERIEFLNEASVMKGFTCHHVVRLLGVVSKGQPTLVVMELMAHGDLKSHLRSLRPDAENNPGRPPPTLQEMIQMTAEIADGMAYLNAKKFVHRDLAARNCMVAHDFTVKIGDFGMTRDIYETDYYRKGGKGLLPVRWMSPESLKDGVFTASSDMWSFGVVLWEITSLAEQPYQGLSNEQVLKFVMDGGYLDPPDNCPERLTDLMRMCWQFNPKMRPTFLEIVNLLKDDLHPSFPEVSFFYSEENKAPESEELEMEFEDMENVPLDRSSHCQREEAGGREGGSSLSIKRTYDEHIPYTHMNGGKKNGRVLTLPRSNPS

Experiments:
[1] = biological target: T1, full-length (FL) plakoglobin (UniProt P14923); assay: pull-down; 6His-tagged FL plakoglobin and 6His-V5-tagged truncation mutants purified from transfected mouse muscles on a Nickel column with a histidine gradient; immunoblotting and densitometric protein ratios
T1 sequence: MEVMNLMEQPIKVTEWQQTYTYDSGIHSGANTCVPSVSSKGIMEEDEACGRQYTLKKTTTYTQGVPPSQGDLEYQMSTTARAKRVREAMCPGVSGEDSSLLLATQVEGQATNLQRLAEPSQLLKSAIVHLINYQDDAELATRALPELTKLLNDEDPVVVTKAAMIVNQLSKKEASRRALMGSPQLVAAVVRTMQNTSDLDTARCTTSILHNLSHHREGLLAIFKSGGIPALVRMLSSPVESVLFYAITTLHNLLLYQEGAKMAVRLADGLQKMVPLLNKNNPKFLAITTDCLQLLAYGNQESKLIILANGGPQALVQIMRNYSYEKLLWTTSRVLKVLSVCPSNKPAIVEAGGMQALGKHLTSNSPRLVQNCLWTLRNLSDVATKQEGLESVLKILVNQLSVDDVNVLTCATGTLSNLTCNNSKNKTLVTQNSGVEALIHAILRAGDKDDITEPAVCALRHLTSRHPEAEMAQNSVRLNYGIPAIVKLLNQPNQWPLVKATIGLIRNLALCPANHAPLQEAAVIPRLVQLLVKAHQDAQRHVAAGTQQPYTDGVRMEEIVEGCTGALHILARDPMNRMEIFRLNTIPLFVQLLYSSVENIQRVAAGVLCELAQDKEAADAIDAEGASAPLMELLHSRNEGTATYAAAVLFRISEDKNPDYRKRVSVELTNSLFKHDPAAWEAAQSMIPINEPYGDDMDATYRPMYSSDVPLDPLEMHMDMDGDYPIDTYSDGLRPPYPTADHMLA

[2] = biological target: T2, plakoglobin (γ-catenin) (mouse (endogenous in mouse skeletal muscle, heart and liver)) (UniProt Q02257); assay: co-IP; plakoglobin immunoprecipitation from muscle membrane extracts of fed or fasted (2 days) mice treated with colchicine or vehicle; immunoblotting
T2 sequence: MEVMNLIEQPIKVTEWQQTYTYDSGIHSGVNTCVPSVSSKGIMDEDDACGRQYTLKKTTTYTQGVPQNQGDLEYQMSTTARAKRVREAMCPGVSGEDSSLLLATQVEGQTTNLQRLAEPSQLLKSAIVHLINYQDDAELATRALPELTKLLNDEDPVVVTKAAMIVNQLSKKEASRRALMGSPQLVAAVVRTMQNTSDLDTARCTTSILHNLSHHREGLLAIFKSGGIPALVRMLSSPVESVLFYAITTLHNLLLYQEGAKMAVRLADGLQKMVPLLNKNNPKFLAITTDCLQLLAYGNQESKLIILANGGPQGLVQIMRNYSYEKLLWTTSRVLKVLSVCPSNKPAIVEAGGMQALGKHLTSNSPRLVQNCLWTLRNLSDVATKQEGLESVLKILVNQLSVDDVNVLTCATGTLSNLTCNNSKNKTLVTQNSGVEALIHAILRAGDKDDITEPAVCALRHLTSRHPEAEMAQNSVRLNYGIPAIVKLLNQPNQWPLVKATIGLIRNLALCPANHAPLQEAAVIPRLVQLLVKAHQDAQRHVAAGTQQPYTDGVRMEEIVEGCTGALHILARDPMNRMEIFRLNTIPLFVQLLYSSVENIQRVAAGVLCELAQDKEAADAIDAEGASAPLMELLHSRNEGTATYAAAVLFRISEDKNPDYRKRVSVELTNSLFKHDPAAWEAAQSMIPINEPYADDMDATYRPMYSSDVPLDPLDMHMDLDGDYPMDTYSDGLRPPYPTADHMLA

[3] = biological target: T2, plakoglobin (γ-catenin) (mouse (endogenous in mouse skeletal muscle, heart and liver)); assay: co-IP; plakoglobin immunoprecipitation from the high MW protein peak of the gel filtration of mouse muscle; bound proteins detected by immunoblotting
[4] = biological target: T2, plakoglobin (γ-catenin) (mouse (endogenous in mouse skeletal muscle, heart and liver)); assay: co-IP; plakoglobin immunoprecipitation from glycerol gradient fractions of membrane extracts of muscles from WT or MKR mice expressing shLacz or 6His-plakoglobin, mice injected with glucose
[5] = biological target: T2, plakoglobin (γ-catenin) (mouse (endogenous in mouse skeletal muscle, heart and liver)); assay: co-IP; anti-plakoglobin from fraction #16 of a 10–40% glycerol gradient of the membrane-cytoskeleton fraction of mouse muscle; immunoblotting
[6] = biological target: T3, 6His-plakoglobin (UniProt P14923); assay: pull-down; 6His-plakoglobin electroporated into mouse TA muscle, Nickel column, bound proteins eluted with a histidine gradient (50–250 mM), immunoblotting
T3 sequence: T1 sequence

[7] = biological target: T2, plakoglobin (γ-catenin) (mouse (endogenous in mouse skeletal muscle, heart and liver)); assay: co-IP; coimmunoprecipitation in mouse heart and liver (Supplementary Fig. 2)
[8] = biological target: T2, plakoglobin (γ-catenin) (mouse (endogenous in mouse skeletal muscle, heart and liver)); assay: co-IP; plakoglobin immunoprecipitation from membrane extracts of muscles of fed mice, then incubation in vitro with synthetic peptides or scrambled control, 4 °C, 1 h; immunoblotting

B2: caveolin-1 (protein, UniProt P49817 1-178)
chain: MSGGKYVDSEGHLYTVPIREQGNIYKPNNKAMADEVTEKQVYDAHTKEIDLVNRDPKHLNDDVVKIDFEDVIAEPEGTHSFDGIWKASFTTFTVTKYWFYRLLSTIFGIPMALIWGIYFAILSFLHIWAVVPCIKSFLIEIQCISRVYSIYVHTFCDPLFEAIGKIFSNIRISTQKEI
- binding [3]: binds
- binding [6]: binds

B3: vinculin (protein, UniProt Q64727 1-1066)
chain: MPVFHTRTIESILEPVAQQISHLVIMHEEGEVDGKAIPDLTAPVAAVQAAVSNLVRVGKETVQTTEDQILKRDMPPAFIKVENACTKLVQAAQMLQSDPYSVPARDYLIDGSRGILSGTSDLLLTFDEAEVRKIIRVCKGILEYLTVAEVVETMEDLVTYTKNLGPGMTKMAKMIDERQQELTHQEHRVMLVNSMNTVKELLPVLISAMKIFVTTKNSKNQGIEEALKNRNFTVEKMSAEINEIIRVLQLTSWDEDAWASKDTEAMKRALASIDSKLNQAKGWLRDPNASPGDAGEQAIRQILDEAGKVGELCAGKERREILGTCKMLGQMTDQVADLRARGQGASPVAMQKAQQVSQGLDVLTAKVENAARKLEAMTNSKQSIAKKIDAAQNWLADPNGGPEGEEQIRGALAEARKIAELCDDPKERDDILRSLGEIAALTSKLGDLRRQGKGDSPEARALAKQVATALQNLQTKTNRAVANSRPAKAAVHLEGKIEQAQRWIDNPTVDDRGVGQAAIRGLVAEGHRLANVMMGPYRQDLLAKCDRVDQLTAQLADLAARGEGESPQARALASQLQDSLKDLKAQMQEAMTQEVSDVFSDTTTPIKLLAVAATAPPDAPNREEVFDERAANFENHSGRLGATAEKAAAVGTANKSTVEGIQASVKTARELTPQVISAARILLRNPGNQAAYEHFETMKNQWIDNVEKMTGLVDEAIDTKSLLDASEEAIKKDLDKCKVAMANIQPQMLVAGATSIARRANRILLVAKREVENSEDPKFREAVKAASDELSKTISPMVMDAKAVAGNISDPGLQKSFLDSGYRILGAVAKVREAFQPQEPDFPPPPPDLEQLRLTDELAPPKPPLPEGEVPPPRPPPPEEKDEEFPEQKAGEVINQPMMMAARQLHDEARKWSSKGNDIIAAAKRMALLMAEMSRLVRGGSGTKRALIQCAKDIAKASDEVTRLAKEVAKQCTDKRIRTNLLQVCERIPTISTQLKILSTVKATMLGRTNISDEESEQATEMLVHNAQNLMQSVKETVREAEAASIKIRTDAGFTLRWVRKTPWYQ
- binding [6]: binds

B4: tyrosine kinase receptor MuSK (receptor, UniProt Q61006 22-868)
chain: EKLPKAPVITTPLETVDALVEEVATFMCAVESYPQPEISWTRNKILIKLFDTRYSIRENGQLLTILSVEDSDDGIYCCIANNGVGGAVESCGALQVKMKPKITRPPINVKIIEGLKAVLPCTTMGNPKPSVSWIKGDNALRENSRIAVLESGSLRIHNVQKEDAGQYRCVAKNSLGTAYSKLVKLEVEVFARILRAPESHNVTFGSFVTLRCTAIGIPVPTISWIENGNAVSSGSIQESVKDRVIDSRLQLFITKPGLYTCIATNKHGEKFSTAKAAATVSIAEWSKSQKDSQGYCAQYRGEVCDAVLAKDALVFFNTSYRDPEDAQELLIHTAWNELKAVSPLCRPAAEALLCNHLFQECSPGVVPTPMPICREYCLAVKELFCAKEWQAMEGKAHRGLYRSGMHLLPVPECSKLPSMHRDPTACTRLPYLDYKKENITTFPSITSSRPSADIPNLPASTSSFAVSPAYSMTVIISIVSSFALFALLTIATLYCCRRRKEWKNKKRESTAVTLTTLPSELLLDRLHPNPMYQRMPLLLNPKLLSLEYPRNNIEYVRDIGEGAFGRVFQARAPGLLPYEPFTMVAVKMLKEEASADMQADFQREAALMAEFDNPNIVKLLGVCAVGKPMCLLFEYMAYGDLNEFLRSMSPHTVCSLSHSDLSTRARVSSPGPPPLSCAEQLCIARQVAAGMAYLSERKFVHRDLATRNCLVGETMVVKIADFGLSRNIYSADYYKADGNDAIPIRWMPPESIFYNRYTTESDVWAYGVVLWEIFSYGLQPYYGMAHEEVIYYVRDGNILACPENCPLELYNLMRLCWSKLPADRPSFCSIHRILQRMCERAEGTVGV
- binding [5]: no binding
- binding [7]: no binding

Now from value to molecule:

- binding [1]: binds
- binding [2]: binds
Molecule: dystrophin (from UniProt P11531 1-3678)

- binding [3]: binds
- binding [4]: binds
- binding [1]: binds
- binding [5]: binds
- binding [2]: binds
- binding [6]: binds
- binding [7]: binds
Molecule: insulin receptor (from UniProt P15208 28-748; P15208 753-1372)

- binding [4]: binds
- binding [1]: binds
- binding [2]: binds
- binding [8]: binds
B1: β-dystroglycan (protein, UniProt Q62165 652-893)
chain: SIVVEWTNNTLPLEPCPKEQIIGLSRRIADENGKPRPAFSNALEPDFKALSIAVTGSGSCRHLQFIPVAPPSPGSSAAPATEVPDRDPEKSSEDDVYLHTVIPAVVVAAILLIAGIIAMICYRKKRKGKLTLEDQATFIKKGVPIIFADELDDSKPPPSSSMPLILQEEKAPLPPPEYPNQSMPETTPLNQDTVGEYTPLRDEDPNAPPYQPPPPFTAPMEGKGSRPKNMTPYRSPPPYVPP
modifications: glycosylated form detected (glycosylated β-dystroglycan)
